In publication PMC8624160 one finds Kd data, which are given here for three sequences.

For data set [1], the system named is thrombin. Nature of the data set: binding assay. The note with it: Binding buffer, ex/em 333/426 nm, constant SITS-aptamer, thrombin titrated, triplicate, commercial protein, folded or branched DNA.
Data set [2] relates to thrombin. As to the kind of experiment: fluorescence attenuation kinetics (kapp). The note with it: internal T6 (CH2)6-NH2 linker coupled to SITS; Binding buffer; ex/em 333/426 nm, constant SITS-aptamer, thrombin titrated, triplicate; commercial protein; label: SITS stilbene (T6); folded or branched DNA.

The exact form of at least one protein or probe is not confirmed.

What is called Kd is the constant that tells how readily two partners part at equilibrium. Sequence “AGTCCGTGGTAGGGCAGGTTGGGGTGACT [Thrombin29 (unmodified)]” registered a Kd in data set [1] (section 4.2 gives ~0.7 nM instead) of 0.5 nM.
“GTCCGTGGTAGGGCAGGTTGGGGTGAC [SITS-Thrombin27 T6]” registered a Kd in data set [2] of 982 nM. This lies in the sub-micromolar range.
Regarding “GTCCGTGGTAGGGCAGGTTGGGGTGAC [Thrombin27 (unmodified)]”, the Kd in data set [1] (section 4.2 gives ~0.5 nM instead) amounted to 0.7 nM.
